# Primary screen of a compound library

Protein sequences, listed by entry. Tags and fused reporters are not part of them.
UniProt E9BF75, entry or part of it: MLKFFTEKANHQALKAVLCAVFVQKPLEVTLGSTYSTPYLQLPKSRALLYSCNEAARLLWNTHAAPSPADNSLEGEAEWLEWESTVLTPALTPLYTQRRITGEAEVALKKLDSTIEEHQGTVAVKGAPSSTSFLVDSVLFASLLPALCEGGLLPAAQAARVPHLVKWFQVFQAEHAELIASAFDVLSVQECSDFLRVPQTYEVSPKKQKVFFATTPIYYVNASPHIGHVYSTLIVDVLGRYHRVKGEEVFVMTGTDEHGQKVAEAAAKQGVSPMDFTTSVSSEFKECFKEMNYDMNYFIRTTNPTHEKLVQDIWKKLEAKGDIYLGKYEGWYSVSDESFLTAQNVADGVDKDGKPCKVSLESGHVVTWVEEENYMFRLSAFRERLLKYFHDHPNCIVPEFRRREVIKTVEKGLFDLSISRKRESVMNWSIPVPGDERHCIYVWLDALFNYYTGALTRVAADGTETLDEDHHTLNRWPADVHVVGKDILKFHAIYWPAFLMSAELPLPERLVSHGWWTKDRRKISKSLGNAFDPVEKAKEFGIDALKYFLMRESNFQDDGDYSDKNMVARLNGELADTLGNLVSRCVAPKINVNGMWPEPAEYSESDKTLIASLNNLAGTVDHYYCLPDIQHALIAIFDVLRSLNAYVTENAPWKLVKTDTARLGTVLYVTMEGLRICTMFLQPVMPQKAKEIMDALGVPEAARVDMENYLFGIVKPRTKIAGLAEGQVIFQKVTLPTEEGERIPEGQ

Data taken from ChEMBL document CHEMBL3988442, “University of Dundee, Small-Polar-MMV Screening Library” (2021).

A: 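Methionyl-tRNA synthetase (putative), Leishmania donovani (UniProt E9BF75). Primary screen of methionyl-tRNA synthetase; the read-out is not stated. The test concentration is not given. Values are per cent inhibition. About 68,000 compounds were tested under these conditions; 0.035% (about 24) showed 50% or more at least once.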
B: 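Assay on Mycobacterium tuberculosis, filed only as a heat shock assay from Cornell; the read-out is not stated. The concentration is filed as 10 mM, unlikely as a test dose, so the dose is not known. Higher reads as stronger inhibition (inferred: compounds with an IC50 in retests scored well above the rest). Size under these conditions: about 69,000 compounds, about 930 of them at 50% or above in at least one test.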

Results are percentages, as filed.
The record does not define 0% and 100%; most values in the screen are far below 50% and negative numbers occur (in some assays of this library far below -100).
The compounds are a random part of those screened.

{"compound": "CC(C)NC(=O)NC(C)c1ccc(-c2ccncc2)cc1", "stereo": "stereo not drawn", "A": 12.09, "B": -0.1466}
{"compound": "COCC1CN(C(=O)C2=CCCCC2)Cc2cnn(CC3CC3)c21", "stereo": "stereo not drawn", "A": 22.55, "B": 21.04}
{"compound": "Cc1ccsc1C(=O)N1CC(C(=O)NCC2CC2)C2(CCOCC2)C1", "stereo": "stereo not drawn", "A": 3.922, "B": -9.453}
{"compound": "[H][C@@]12CS(=O)(=O)C[C@]1([H])N(CCCOc1ccccc1)CCN2C(=O)N(C)C", "B": -23.21}
{"compound": "O=C(Cc1n[nH]c(-c2cncc(Br)c2)n1)NCc1ccccn1", "A": 11.67, "B": -18.31}
{"compound": "Cc1ccccc1Cc1cnc(NC(=O)C2CNC(=O)N2)s1", "stereo": "stereo not drawn", "A": 18.75, "B": -6.903}
{"compound": "CSc1nc2cc(C)n(CC(=O)N3CCCC3)c2c(=O)n1CC(C)C", "A": -58.39, "B": 13.13}
{"compound": "Cc1cccc(C2CCCN(C(=O)CN3CCCC3=O)C2)c1", "stereo": "stereo not drawn", "A": 13.94, "B": 14.62}
{"compound": "COc1ccc(C2CCN(Cc3cscn3)CC2)cc1", "A": 12.15, "B": -31.35}
{"compound": "CNCc1cc(F)ccc1Oc1ccc(F)cc1", "A": 9.459, "B": -8.949}
{"compound": "O=C(O)C(F)(F)F.[H][C@@]12CC(=O)N(Cc3csc(C)n3)[C@@]1([H])CCN2CC1CCOCC1", "B": -14.82}
{"compound": "CN(C)Cc1cnn(-c2ccccc2C(=O)N(C)Cc2ccccc2)c1", "A": 16.08, "B": -7.512}
{"compound": "Cc1nc(N2CCN3CCCCC3C2)nc2cc(S(C)(=O)=O)ccc12", "stereo": "stereo not drawn", "A": 6.183, "B": 4.233}
{"compound": "O=C(O)C(F)(F)F.O=C(O)C(F)(F)F.[H][C@@]12COC[C@]1(COc1cccnc1)CN(c1cc(OC)ncn1)C2", "B": -1.591}
{"compound": "CN(C)CCOCc1nnc2n1CCN(Cc1ccco1)CC2.O=C(O)C(F)(F)F.O=C(O)C(F)(F)F", "B": 2.899}
{"compound": "CN1CCN(C(=O)Cn2nc(C(F)(F)F)c(Br)c2C2CC2)CC1", "A": 18.82, "B": 82.35}
{"compound": "O=C(NCc1ccc(-c2ccn[nH]2)cc1)N1CCC(N2CCCC2)C1", "stereo": "stereo not drawn", "A": 20.47, "B": -32.03}
{"compound": "CN(C)C(=O)[C@H]1CC[C@@H]2[C@@H](CCN2Cc2ccccn2)O1", "A": 5.797}
{"compound": "c1cc(CN2CCOCC3(CCN(CC4CCOCC4)CC3)C2)ccn1", "A": 16.48}
{"compound": "CS(=O)(=O)N1CCCC(Cc2cncc(-c3ccccc3C(=O)O)n2)C1", "stereo": "stereo not drawn", "A": 7.91, "B": -0.4238}
{"compound": "Cc1ccc2[nH]c(C(=O)N3CCCC3Cn3cccn3)cc2c1", "stereo": "stereo not drawn", "A": 17.47, "B": -3.73}
{"compound": "COc1cccc([C@H]2CN(C(=O)c3noc4c3CCCC4)C[C@@H]2N)c1", "A": 8.04, "B": 11.82}
{"compound": "COCCN1CCOCC12CCN(c1nccs1)CC2.O=C(O)C(F)(F)F", "B": 9.562}
{"compound": "COCCN1C(=O)CCC12CCN(C(=O)CNC(C)=O)CC2", "A": 13.14, "B": 17.11}
{"compound": "Cc1ccc(OC2CCN(S(=O)(=O)N(C)C)CC2)nc1", "A": 10.08, "B": -4.098}
{"compound": "CCc1nnc2n1CC(CNCc1nc(C)c(C)o1)CC2", "stereo": "stereo not drawn", "A": 7.796, "B": -15.23}
{"compound": "O=C(CC1CN(Cc2ccccc2)CCO1)Nc1ccccc1F", "stereo": "stereo not drawn", "A": 16.19, "B": 0.1748}

For reference, 3 entries once more:

Compound,A,B
O=C(Cc1n[nH]c(-c2cncc(Br)c2)n1)NCc1ccccn1,11.67,-18.31
Cc1ccc2[nH]c(C(=O)N3CCCC3Cn3cccn3)cc2c1 (stereo not drawn),17.47,-3.73
CS(=O)(=O)N1CCCC(Cc2cncc(-c3ccccc3C(=O)O)n2)C1 (stereo not drawn),7.91,-0.4238